Data on 22 molecules can be found in doi:10.1101/2025.07.25.666749.

Chains of the proteins cited; added tags and fusions are not shown.
UniProt Q9UKV8: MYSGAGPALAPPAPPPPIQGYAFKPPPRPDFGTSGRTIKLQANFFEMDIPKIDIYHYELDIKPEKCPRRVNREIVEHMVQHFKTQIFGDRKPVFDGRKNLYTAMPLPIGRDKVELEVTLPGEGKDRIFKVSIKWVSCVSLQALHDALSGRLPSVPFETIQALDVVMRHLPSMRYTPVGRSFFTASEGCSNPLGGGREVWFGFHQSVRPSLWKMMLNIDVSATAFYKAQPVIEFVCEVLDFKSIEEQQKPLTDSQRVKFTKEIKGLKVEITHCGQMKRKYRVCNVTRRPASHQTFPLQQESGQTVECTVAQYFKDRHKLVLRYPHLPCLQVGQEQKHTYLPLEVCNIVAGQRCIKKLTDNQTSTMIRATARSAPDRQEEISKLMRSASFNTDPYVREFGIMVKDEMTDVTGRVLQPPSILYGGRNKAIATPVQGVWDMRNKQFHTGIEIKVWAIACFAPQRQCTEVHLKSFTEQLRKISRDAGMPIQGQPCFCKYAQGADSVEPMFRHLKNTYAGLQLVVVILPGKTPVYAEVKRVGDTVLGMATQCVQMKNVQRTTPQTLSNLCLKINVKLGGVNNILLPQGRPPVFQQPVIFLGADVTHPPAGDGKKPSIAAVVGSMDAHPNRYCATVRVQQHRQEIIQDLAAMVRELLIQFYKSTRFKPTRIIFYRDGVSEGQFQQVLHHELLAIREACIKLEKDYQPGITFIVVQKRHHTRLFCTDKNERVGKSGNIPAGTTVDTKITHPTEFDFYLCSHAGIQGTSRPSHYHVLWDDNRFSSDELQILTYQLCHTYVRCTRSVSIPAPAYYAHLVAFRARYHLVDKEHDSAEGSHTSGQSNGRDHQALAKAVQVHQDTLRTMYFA
UniProt Q9HC16: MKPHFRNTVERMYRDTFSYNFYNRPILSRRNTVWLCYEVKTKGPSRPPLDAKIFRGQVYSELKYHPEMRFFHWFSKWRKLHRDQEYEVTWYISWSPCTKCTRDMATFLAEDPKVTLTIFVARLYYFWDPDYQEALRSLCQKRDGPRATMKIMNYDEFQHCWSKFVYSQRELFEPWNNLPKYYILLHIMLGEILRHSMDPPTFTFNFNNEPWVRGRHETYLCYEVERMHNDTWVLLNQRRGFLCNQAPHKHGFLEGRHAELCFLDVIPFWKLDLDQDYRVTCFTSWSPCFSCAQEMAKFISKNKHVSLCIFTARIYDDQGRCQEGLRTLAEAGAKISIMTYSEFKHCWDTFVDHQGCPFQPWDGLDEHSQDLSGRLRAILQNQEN
UniProt O15234: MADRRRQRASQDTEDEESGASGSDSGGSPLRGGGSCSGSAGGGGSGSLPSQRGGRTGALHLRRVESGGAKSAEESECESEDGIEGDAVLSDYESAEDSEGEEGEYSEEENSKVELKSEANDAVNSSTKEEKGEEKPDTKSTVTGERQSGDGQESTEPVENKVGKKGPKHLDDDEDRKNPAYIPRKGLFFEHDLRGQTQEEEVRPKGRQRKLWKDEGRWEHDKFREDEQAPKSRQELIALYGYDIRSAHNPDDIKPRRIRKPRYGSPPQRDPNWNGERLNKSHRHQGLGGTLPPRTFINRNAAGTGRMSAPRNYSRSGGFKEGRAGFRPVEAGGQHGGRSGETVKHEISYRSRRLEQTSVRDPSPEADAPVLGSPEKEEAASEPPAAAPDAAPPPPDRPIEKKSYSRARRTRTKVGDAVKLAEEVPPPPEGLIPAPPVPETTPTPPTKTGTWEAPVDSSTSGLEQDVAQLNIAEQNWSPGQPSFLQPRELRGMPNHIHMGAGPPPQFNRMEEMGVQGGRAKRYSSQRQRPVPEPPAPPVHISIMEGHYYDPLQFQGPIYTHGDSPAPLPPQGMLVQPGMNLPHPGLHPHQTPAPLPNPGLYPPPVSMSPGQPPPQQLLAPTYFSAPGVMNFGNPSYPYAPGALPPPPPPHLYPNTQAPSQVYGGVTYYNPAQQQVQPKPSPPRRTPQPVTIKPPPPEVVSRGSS
UniProt P51114: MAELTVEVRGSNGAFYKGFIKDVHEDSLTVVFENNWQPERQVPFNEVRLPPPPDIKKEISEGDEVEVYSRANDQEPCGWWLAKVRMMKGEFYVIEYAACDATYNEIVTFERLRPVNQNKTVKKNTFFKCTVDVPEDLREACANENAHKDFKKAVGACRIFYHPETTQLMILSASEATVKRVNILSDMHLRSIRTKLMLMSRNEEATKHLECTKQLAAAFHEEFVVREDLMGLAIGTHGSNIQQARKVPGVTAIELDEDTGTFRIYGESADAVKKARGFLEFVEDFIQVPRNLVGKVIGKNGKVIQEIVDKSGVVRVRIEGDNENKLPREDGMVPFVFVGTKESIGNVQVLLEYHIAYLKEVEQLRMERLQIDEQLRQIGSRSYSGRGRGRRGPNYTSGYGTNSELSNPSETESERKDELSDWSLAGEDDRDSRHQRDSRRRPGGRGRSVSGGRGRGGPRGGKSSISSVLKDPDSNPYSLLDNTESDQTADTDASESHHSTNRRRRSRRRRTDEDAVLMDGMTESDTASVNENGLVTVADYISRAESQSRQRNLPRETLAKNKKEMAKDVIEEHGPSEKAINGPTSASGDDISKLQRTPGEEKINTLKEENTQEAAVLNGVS
UniProt P33241: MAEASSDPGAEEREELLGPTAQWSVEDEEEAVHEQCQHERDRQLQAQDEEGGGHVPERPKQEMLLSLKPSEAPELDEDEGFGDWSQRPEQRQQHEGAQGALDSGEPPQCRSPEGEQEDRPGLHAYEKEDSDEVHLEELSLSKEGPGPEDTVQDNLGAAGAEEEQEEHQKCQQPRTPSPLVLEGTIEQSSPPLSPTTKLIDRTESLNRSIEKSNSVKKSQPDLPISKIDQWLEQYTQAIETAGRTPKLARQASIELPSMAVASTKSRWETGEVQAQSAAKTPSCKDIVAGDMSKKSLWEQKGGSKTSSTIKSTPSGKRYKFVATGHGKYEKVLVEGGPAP
UniProt P11940: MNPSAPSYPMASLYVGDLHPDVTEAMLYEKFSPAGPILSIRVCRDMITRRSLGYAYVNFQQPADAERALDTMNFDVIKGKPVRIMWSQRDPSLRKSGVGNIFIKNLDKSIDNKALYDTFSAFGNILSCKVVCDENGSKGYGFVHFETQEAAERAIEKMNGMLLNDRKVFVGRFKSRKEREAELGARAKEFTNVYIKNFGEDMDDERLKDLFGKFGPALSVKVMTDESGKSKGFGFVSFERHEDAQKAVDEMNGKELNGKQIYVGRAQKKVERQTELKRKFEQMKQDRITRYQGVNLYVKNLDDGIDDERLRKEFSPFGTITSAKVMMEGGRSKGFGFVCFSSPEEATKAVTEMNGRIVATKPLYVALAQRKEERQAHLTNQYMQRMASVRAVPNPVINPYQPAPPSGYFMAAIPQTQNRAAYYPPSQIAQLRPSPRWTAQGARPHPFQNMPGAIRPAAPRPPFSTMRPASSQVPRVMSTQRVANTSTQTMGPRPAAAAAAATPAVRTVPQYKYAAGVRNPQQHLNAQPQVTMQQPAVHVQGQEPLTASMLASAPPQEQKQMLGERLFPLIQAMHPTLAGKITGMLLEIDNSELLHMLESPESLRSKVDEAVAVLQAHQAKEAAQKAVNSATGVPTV
UniProt O75381: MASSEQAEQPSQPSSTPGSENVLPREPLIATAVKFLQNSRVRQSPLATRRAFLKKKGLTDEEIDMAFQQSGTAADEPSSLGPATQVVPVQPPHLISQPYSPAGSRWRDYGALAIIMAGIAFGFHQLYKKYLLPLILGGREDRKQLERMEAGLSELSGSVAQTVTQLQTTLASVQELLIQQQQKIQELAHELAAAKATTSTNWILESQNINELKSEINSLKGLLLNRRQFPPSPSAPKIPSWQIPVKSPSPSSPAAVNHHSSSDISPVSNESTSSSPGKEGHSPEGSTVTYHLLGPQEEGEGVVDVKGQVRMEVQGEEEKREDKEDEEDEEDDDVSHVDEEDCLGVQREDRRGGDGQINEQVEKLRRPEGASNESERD
UniProt Q9UPQ9: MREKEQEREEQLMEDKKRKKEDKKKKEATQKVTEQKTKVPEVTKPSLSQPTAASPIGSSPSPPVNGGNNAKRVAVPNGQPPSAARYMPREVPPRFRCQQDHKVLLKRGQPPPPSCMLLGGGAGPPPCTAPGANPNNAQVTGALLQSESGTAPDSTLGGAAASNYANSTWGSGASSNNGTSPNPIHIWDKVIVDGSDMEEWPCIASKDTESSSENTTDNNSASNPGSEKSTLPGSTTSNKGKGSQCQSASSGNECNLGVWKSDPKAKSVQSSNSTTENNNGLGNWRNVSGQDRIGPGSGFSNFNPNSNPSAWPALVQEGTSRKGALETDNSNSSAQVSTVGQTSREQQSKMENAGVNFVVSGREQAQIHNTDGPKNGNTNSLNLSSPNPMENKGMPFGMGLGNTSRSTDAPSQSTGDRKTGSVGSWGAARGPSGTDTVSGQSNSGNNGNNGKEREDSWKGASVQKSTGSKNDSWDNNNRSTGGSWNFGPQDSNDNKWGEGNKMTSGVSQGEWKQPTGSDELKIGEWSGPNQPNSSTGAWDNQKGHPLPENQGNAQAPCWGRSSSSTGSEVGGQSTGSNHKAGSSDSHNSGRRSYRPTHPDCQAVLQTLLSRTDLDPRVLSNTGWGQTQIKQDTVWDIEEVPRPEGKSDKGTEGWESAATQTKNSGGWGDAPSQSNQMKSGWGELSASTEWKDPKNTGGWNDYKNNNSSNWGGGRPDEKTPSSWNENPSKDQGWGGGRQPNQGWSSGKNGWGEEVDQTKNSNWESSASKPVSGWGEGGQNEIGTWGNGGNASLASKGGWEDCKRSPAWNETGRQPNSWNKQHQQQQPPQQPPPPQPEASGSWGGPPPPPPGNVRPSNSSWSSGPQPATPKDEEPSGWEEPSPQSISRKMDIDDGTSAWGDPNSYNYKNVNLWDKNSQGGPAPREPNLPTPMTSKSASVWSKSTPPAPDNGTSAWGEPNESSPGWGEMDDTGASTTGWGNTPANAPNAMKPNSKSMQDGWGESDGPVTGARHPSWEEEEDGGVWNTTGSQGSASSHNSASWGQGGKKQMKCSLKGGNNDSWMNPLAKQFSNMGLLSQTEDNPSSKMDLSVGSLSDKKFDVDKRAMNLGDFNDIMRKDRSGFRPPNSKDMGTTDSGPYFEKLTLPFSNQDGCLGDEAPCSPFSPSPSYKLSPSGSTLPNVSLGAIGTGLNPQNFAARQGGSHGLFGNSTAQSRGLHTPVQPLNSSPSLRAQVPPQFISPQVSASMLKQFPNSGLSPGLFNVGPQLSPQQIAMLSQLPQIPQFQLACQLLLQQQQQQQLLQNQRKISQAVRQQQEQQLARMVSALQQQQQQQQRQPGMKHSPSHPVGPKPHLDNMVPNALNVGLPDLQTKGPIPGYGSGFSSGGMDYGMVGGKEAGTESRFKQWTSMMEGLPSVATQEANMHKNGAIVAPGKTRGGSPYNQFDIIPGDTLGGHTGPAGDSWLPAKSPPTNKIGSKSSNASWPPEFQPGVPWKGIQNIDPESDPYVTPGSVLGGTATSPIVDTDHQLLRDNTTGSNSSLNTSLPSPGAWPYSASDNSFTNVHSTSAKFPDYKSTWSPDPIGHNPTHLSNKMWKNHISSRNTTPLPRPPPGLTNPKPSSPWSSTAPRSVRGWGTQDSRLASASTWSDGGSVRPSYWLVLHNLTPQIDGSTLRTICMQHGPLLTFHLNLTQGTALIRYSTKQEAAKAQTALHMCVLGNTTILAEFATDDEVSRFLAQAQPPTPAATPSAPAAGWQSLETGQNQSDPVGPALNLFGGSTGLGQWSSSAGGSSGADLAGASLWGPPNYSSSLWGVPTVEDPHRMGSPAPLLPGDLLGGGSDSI
UniProt P67809: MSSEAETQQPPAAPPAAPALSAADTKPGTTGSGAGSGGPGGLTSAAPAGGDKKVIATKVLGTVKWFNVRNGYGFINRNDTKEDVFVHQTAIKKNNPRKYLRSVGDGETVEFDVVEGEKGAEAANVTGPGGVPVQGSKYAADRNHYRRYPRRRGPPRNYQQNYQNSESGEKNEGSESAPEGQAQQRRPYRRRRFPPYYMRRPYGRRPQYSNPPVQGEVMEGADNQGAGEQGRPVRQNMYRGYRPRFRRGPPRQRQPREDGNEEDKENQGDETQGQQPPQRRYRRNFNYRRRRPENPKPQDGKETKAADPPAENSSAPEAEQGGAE

B1: UPF1 (protein, UniProt Q92900 1-1129)
chain: MSVEAYGPSSQTLTFLDTEEAELLGADTQGSEFEFTDFTLPSQTQTPPGGPGGPGGGGAGGPGGAGAGAAAGQLDAQVGPEGILQNGAVDDSVAKTSQLLAELNFEEDEEDTYYTKDLPIHACSYCGIHDPACVVYCNTSKKWFCNGRGNTSGSHIVNHLVRAKCKEVTLHKDGPLGETVLECYNCGCRNVFLLGFIPAKADSVVVLLCRQPCASQSSLKDINWDSSQWQPLIQDRCFLSWLVKIPSEQEQLRARQITAQQINKLEELWKENPSATLEDLEKPGVDEEPQHVLLRYEDAYQYQNIFGPLVKLEADYDKKLKESQTQDNITVRWDLGLNKKRIAYFTLPKTDSGNEDLVIIWLRDMRLMQGDEICLRYKGDLAPLWKGIGHVIKVPDNYGDEIAIELRSSVGAPVEVTHNFQVDFVWKSTSFDRMQSALKTFAVDETSVSGYIYHKLLGHEVEDVIIKCQLPKRFTAQGLPDLNHSQVYAVKTVLQRPLSLIQGPPGTGKTVTSATIVYHLARQGNGPVLVCAPSNIAVDQLTEKIHQTGLKVVRLCAKSREAIDSPVSFLALHNQIRNMDSMPELQKLQQLKDETGELSSADEKRYRALKRTAERELLMNADVICCTCVGAGDPRLAKMQFRSILIDESTQATEPECMVPVVLGAKQLILVGDHCQLGPVVMCKKAAKAGLSQSLFERLVVLGIRPIRLQVQYRMHPALSAFPSNIFYEGSLQNGVTAADRVKKGFDFQWPQPDKPMFFYVTQGQEEIASSGTSYLNRTEAANVEKITTKLLKAGAKPDQIGIITPYEGQRSYLVQYMQFSGSLHTKLYQEVEIASVDAFQGREKDFIILSCVRANEHQGIGFLNDPRRLNVALTRARYGVIIVGNPKALSKQPLWNHLLNYYKEQKVLVEGPLNNLRESLMQFSKPRKLVNTINPGARFMTTAMYDAREAIIPGSVYDRSSQGRPSSMYFQTHDQIGMISAGPSHVAAMNIPIPFNLVMPPMPPPGYFGQANGPAAGRGTPKGKTGRGGRQKNRFGLPGPSQTNLPNSQASQDVASQPFSQGALTQGYISMSQPSQMSQPGLSQPELSQDSYLGDEFKSQIDVALSQDSTYQGERAYQHGGVTGLSQY
B2: MOV10 (protein, UniProt Q9HCE1 1-1003)
chain: MPSKFSCRQLREAGQCFESFLVVRGLDMETDRERLRTIYNRDFKISFGTPAPGFSSMLYGMKIANLAYVTKTRVRFFRLDRWADVRFPEKRRMKLGSDISKHHKSLLAKIFYDRAEYLHGKHGVDVEVQGPHEARDGQLLIRLDLNRKEVLTLRLRNGGTQSVTLTHLFPLCRTPQFAFYNEDQELPCPLGPGECYELHVHCKTSFVGYFPATVLWELLGPGESGSEGAGTFYIARFLAAVAHSPLAAQLKPMTPFKRTRITGNPVVTNRIEEGERPDRAKGYDLELSMALGTYYPPPRLRQLLPMLLQGTSIFTAPKEIAEIKAQLETALKWRNYEVKLRLLLHLEELQMEHDIRHYDLESVPMTWDPVDQNPRLLTLEVPGVTESRPSVLRGDHLFALLSSETHQEDPITYKGFVHKVELDRVKLSFSMSLLSRFVDGLTFKVNFTFNRQPLRVQHRALELTGRWLLWPMLFPVAPRDVPLLPSDVKLKLYDRSLESNPEQLQAMRHIVTGTTRPAPYIIFGPPGTGKTVTLVEAIKQVVKHLPKAHILACAPSNSGADLLCQRLRVHLPSSIYRLLAPSRDIRMVPEDIKPCCNWDAKKGEYVFPAKKKLQEYRVLITTLITAGRLVSAQFPIDHFTHIFIDEAGHCMEPESLVAIAGLMEVKETGDPGGQLVLAGDPRQLGPVLRSPLTQKHGLGYSLLERLLTYNSLYKKGPDGYDPQFITKLLRNYRSHPTILDIPNQLYYEGELQACADVVDRERFCRWAGLPRQGFPIIFHGVMGKDEREGNSPSFFNPEEAATVTSYLKLLLAPSSKKGKARLSPRSVGVISPYRKQVEKIRYCITKLDRELRGLDDIKDLKVGSVEEFQGQERSVILISTVRSSQSFVQLDLDFNLGFLKNPKRFNVAVTRAKALLIIVGNPLLLGHDPDWKVFLEFCKENGGYTGCPFPAKLDLQQGQNLLQGLSKLSPSTSGPHSHDYLPQEREGEGGLSLQVEPEWRNEL
B3: AIMP2 (protein, UniProt Q13155 1-320)
chain: MPMYQVKPYHGGGAPLRVELPTCMYRLPNVHGRSYGPAPGAGHVQEESNLSLQALESRQDDILKRLYELKAAVDGLSKMIQTPDADLDVTNIIQADEPTTLTTNALDLNSVLGKDYGALKDIVINANPASPPLSLLVLHRLLCEHFRVLSTVHTHSSVKSVPENLLKCFGEQNKKQPRQDYQLGFTLIWKNVPKTQMKFSIQTMCPIEGEGNIARFLFSLFGQKHNAVNATLIDSWVDIAIFQLKEGSSKEKAAVFRSMNSALGKSPWLAGNELTVADVVLWSVLQQIGGCSVTVPANVQRWMRSCENLAPFNTALKLLK
B4: ZFP36L2 (protein, UniProt P47974 1-494)
chain: MSTTLLSAFYDVDFLCKTEKSLANLNLNNMLDKKAVGTPVAAAPSSGFAPGFLRRHSASNLHALAHPAPSPGSCSPKFPGAANGSSCGSAAAGGPTSYGTLKEPSGGGGTALLNKENKFRDRSFSENGDRSQHLLHLQQQQKGGGGSQINSTRYKTELCRPFEESGTCKYGEKCQFAHGFHELRSLTRHPKYKTELCRTFHTIGFCPYGPRCHFIHNADERRPAPSGGASGDLRAFGTRDALHLGFPREPRPKLHHSLSFSGFPSGHHQPPGGLESPLLLDSPTSRTPPPPSCSSASSCSSSASSCSSASAASTPSGAPTCCASAAAAAAAALLYGTGGAEDLLAPGAPCAACSSASCANNAFAFGPELSSLITPLAIQTHNFAAVAAAAYYRSQQQQQQQGLAPPAQPPAPPSATLPAGAAAPPSPPFSFQLPRRLSDSPVFDAPPSPPDSLSDRDSYLSGSLSSGSLSGSESPSLDPGRRLPIFSRLSISDD
B5: ZNF598 (protein, UniProt Q86UK7 1-904)
chain: MAAAGGAEGRRAALEAAAAAAPERGGGSCVLCCGDLEATALGRCDHPVCYRCSTKMRVLCEQRYCAVCREELRQVVFGKKLPAFATIPIHQLQHEKKYDIYFADGKVYALYRQLLQHECPRCPELPPFSLFGDLEQHMRRQHELFCCRLCLQHLQIFTYERKWYSRKDLARHRMQGDPDDTSHRGHPLCKFCDERYLDNDELLKHLRRDHYFCHFCDSDGAQDYYSDYAYLREHFREKHFLCEEGRCSTEQFTHAFRTEIDLKAHRTACHSRSRAEARQNRHIDLQFSYAPRHSRRNEGVVGGEDYEEVDRYSRQGRVARAGTRGAQQSRRGSWRYKREEEDREVAAAVRASVAAQQQEEARRSEDQEEGGRPKKEEAAARGPEDPRGPRRSPRTQGEGPGPKETSTNGPVSQEAFSVTGPAAPGCVGVPGALPPPSPKLKDEDFPSLSASTSSSCSTAATPGPVGLALPYAIPARGRSAFQEEDFPALVSSVPKPGTAPTSLVSAWNSSSSSKKVAQPPLSAQATGSGQPTRKAGKGSRGGRKGGPPFTQEEEEDGGPALQELLSTRPTGSVSSTLGLASIQPSKVGKKKKVGSEKPGTTLPQPPPATCPPGALQAPEAPASRAEGPVAVVVNGHTEGPAPARSAPKEPPGLPRPLGSFPCPTPQEDFPALGGPCPPRMPPPPGFSAVVLLKGTPPPPPPGLVPPISKPPPGFSGLLPSPHPACVPSPATTTTTKAPRLLPAPRAYLVPENFRERNLQLIQSIRDFLQSDEARFSEFKSHSGEFRQGLISAAQYYKSCRDLLGENFQKVFNELLVLLPDTAKQQELLSAHTDFCNREKPLSTKSKKNKKSAWQATTQQAGLDCRVCPTCQQVLAHGDASSHQALHAARDDDFPSLQAIARIIT

These are yes or no findings as the source states them, for the method shown. In cells and extracts the contact can be indirect. These calls come from enrichment with a bait or labelling near it, and not all partners need be listed.

The target in the experiment is T1, ZFP36L1 (endogenous) (human (endogenous in primary T cells)) (UniProt Q07352).
T1 sequence: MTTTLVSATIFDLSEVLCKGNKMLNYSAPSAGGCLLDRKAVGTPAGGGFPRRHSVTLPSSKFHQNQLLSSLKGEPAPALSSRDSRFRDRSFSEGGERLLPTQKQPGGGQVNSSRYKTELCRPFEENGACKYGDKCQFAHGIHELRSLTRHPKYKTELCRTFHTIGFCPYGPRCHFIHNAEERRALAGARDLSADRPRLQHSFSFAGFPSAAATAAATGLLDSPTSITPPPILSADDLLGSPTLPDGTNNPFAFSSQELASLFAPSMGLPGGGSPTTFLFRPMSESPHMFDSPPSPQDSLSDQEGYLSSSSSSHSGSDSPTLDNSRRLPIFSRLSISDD
Kind of experiment: affinity purification with mass spectrometry.
Turning to AGO2 (from UniProt Q9UKV8 1-859), the binding result is “binds”. On to AGO3 (from UniProt Q9H9G7 1-860), for which the binding result was “binds”. For APOBEC3G (from UniProt Q9HC16 1-384) the value was “binds”; for CASC3 (from UniProt O15234 1-703), “binds”; for “DISL3 (human (endogenous in primary T cells))”, “binds”.

Turning to FAM91A1 (from UniProt Q658Y4 1-838), the binding result is listed as “binds”. Regarding FXR1 (from UniProt P51114 1-621), the binding result is given as “binds”. As to FXR2 (from UniProt P51116 1-673), the binding result is “binds”.

Fam98A (from UniProt Q8NCA5 1-518): the binding result was “binds”.

Turning to LSP1 (from UniProt P33241 1-339), the binding result is “binds”. The value for PABPC1 (from UniProt P11940 1-636) was “binds”; that for PEX14 (from UniProt O75381 1-377) was “binds”; that for PRRC2A (from UniProt P48634 1-2157) was “binds”. In the case of “SQSTM1 (p62) (from UniProt Q13501 1-440)”, the binding entry is “binds”.

In the case of “STRIP1 (Fam40a) (from UniProt Q5VSL9 1-837)”, the binding result is listed as “binds”.

TNRC6B (from UniProt Q9UPQ9 1-1833): the binding entry was “binds”. On to YBX1 (from UniProt P67809 1-324), for which the binding result is listed as “binds”. As for B1, the binding result is “binds”. In the case of B2, the binding result is listed as “binds”. For B3, the binding entry is recorded as “binds”. For B4 the value was “binds”; for B5, “binds”.
